Data published in publication PMC3711430.
No constants are given. Whether binding was seen depends on the method and setting. Binding seen in cells or lysates may run through a third protein.

The chains behind the UniProt entries cited, without tags or fusion partners.
UniProt P54132: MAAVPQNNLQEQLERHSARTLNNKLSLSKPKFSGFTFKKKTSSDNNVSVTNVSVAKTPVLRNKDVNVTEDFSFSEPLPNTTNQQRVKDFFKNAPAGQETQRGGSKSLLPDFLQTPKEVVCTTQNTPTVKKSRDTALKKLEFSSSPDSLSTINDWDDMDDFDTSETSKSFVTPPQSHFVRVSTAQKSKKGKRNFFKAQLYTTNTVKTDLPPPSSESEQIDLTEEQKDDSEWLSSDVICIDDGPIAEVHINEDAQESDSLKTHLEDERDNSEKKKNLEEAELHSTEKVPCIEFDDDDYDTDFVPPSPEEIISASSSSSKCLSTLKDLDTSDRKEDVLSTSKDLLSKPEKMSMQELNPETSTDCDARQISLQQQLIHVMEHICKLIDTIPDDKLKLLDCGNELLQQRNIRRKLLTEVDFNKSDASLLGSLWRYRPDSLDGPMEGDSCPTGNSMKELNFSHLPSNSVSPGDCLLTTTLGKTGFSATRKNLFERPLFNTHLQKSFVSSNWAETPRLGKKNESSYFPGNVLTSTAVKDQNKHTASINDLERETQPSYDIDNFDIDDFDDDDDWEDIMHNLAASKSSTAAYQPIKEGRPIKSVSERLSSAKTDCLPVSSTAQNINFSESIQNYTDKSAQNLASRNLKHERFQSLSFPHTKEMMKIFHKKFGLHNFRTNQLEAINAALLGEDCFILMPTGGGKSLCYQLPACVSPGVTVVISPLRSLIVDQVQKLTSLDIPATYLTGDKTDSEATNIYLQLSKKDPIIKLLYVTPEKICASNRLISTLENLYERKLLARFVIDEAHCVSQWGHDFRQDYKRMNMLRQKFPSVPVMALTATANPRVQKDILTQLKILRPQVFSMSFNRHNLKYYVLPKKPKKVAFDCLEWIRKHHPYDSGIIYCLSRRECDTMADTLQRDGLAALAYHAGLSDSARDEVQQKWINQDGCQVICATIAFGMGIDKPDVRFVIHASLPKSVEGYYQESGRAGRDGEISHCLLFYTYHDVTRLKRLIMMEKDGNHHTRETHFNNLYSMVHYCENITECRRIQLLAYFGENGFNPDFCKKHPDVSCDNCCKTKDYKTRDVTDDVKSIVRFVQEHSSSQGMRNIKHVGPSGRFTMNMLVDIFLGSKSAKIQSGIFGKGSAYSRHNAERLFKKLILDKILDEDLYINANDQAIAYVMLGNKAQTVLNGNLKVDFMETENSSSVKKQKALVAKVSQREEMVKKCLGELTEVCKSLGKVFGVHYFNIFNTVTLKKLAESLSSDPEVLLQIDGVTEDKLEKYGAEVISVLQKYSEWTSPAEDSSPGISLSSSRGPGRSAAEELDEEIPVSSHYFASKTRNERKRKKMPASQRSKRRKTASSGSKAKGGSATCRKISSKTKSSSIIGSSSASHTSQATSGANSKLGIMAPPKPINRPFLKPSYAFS
UniProt Q9NVI1: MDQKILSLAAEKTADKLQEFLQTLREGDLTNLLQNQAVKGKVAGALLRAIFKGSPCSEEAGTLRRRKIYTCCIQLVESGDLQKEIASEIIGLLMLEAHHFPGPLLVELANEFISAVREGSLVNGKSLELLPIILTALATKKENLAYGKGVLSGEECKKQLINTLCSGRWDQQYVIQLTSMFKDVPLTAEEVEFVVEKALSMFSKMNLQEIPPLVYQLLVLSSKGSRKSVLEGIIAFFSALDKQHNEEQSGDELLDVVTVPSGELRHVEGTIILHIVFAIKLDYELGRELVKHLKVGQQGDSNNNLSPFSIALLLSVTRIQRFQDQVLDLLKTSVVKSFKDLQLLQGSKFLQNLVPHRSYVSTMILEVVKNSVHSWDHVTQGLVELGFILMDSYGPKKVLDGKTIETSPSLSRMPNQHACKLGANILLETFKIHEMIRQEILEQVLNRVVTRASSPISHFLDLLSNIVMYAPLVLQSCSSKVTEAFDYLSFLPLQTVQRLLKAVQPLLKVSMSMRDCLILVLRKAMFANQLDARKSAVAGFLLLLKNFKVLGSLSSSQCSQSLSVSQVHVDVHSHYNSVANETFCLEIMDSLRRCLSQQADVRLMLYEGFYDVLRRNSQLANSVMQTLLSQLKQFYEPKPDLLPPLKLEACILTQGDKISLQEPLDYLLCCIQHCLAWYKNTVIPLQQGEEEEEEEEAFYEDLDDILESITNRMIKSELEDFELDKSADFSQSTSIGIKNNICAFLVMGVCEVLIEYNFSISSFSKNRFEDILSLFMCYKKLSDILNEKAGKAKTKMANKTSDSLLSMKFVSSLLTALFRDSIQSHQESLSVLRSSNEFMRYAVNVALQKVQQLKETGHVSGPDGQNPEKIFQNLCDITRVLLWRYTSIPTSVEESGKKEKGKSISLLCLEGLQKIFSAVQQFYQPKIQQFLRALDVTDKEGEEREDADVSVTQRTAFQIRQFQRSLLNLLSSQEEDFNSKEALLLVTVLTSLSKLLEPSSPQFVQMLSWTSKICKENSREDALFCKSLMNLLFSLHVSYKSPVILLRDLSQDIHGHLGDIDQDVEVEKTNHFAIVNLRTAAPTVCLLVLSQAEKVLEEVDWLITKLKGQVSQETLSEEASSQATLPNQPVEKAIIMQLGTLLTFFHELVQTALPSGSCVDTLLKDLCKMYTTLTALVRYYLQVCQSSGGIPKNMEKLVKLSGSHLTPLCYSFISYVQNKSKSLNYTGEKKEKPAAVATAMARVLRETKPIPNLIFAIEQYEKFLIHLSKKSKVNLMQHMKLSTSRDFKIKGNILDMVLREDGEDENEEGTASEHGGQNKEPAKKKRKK

Biological target: human BLM (Bloom's helicase) (human (endogenous in PD20 and PD20 + D2 fibroblasts)) (UniProt P54132)
Test: co-IP; whole cell extracts of PD20 + D2 (and PD20) fibroblasts, untreated or aphidicolin-treated; precleared with rabbit IgG; IP with FANCD2 or BLM antibody at 4°C overnight, Sepharose 4B beads; buffer 10 mM Tris pH 7.4, 150 mM NaCl, 1% NP-40, 0.5% sodium deoxycholate, 1 mM EDTA, 1 mM DTT; western blot

binding: no binding
Substance: human FANCI (from UniProt Q9NVI1 1-1328)
